Results from patent US20090203538A1.
Results are given in words; binding and its absence hold for the method and conditions named. Some entries that bind do so weakly or less than the wild type.

Protein sequences, listed by entry. Tags and fused reporters are not part of them. Lines headed by an entry give the natural chain unless they say otherwise; changes in a name come on top.
UniProt P26006: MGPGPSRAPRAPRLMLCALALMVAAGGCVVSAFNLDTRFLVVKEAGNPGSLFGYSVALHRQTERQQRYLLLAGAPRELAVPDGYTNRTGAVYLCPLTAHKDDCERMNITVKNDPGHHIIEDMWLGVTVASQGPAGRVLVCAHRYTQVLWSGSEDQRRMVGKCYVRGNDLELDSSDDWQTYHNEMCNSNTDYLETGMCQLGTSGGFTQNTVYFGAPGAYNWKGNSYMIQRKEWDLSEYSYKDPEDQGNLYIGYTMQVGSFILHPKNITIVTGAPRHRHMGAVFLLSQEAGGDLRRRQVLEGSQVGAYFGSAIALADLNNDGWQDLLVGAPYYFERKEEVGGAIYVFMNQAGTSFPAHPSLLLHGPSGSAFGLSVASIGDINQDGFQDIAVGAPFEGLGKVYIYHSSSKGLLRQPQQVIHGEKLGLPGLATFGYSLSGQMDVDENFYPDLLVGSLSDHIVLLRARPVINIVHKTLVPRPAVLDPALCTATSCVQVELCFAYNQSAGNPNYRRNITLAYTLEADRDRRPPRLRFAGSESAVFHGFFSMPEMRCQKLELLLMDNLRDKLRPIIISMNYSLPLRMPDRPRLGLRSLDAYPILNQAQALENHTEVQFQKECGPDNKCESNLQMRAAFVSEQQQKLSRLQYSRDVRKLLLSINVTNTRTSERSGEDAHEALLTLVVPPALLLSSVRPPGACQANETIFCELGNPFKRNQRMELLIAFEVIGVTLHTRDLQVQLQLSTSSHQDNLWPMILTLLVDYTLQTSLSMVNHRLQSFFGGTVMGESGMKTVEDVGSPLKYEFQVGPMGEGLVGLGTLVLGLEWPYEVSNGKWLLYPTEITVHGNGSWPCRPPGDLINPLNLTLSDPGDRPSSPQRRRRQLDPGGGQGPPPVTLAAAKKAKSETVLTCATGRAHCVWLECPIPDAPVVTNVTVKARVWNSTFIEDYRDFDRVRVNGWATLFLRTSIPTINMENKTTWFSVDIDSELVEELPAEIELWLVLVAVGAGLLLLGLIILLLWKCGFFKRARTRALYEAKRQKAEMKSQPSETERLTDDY

What was measured:
[1] = biological target: ITGA3 (integrin alpha 3) (Homo sapiens (Human)) (UniProt P26006); test: antigen assigned by the filing's classifying and identification method; details for this clone not given
[2] = biological target: ITGA3 (integrin alpha 3) (Homo sapiens (Human)) (UniProt P26006); test: flow cytometry on SKOv-3 cells with ITGA3 or ITGB1 RNAi, cp3 type antibody; peak pattern like that of an anti-ITGA3 antibody

| Binder | binding [1] | binding [2] |
| --- | --- | --- |
| 064-085 antibody (antibody, V domains shown) VH: QVQLVQSGAEVKKPGASVKVSCKASGYTFTSYGISWVRQAPGQGLEWMGWISAYNGNTNYAQKLQGRVTMTTDTSTSTAYMELRSLRSDDTAVYYCARDRYYGSGFGMDVWGQGTMVTVSR VL: SSELTQDPAMSVALGQTVKITCQGDSLTNYYPSWYQQKPGQAPVLVMYGKDSRPSGISDRFSGSSSGISASLTITGAQAEDEADYYCNSRDGSAHRLVFGGGTKLTVLG | binds | binds |
| 064-093 antibody (antibody, V domains shown) VH: QVQLVQSGAEVKKPGASVKVSCKASGYTFTNYGLTWVRQAPGQGLEWMGWISTYNSNTNYAEKLQGRVTMTTDTSTSTAYMELRSLTSDDTAVYYCARGPTYSFDSSGYFFDYWGQGTLVTVSR VL: SSELTQDPAVSVALGQTVRITCQGDSLRSYYASWYQQKPGQAPVLVIYGKNNRPSGIPDRFSGSSSGNTASLTITGAQAEDEADYYCNSRDSSGNHWVFGGGTKLTVLG | binds | binds |
| 064-116 antibody (antibody, V domains shown) VH: QVQLVQSGAEVKKPGASVKVSCKASGYTFTSYGISWVRQAPGQGLEWMGWISAYNGNTNYAQKLQGRVTMTTDTSTSTAYMELRSLRSDDTAVYYCARDTYSSGWYFDYWGQGTLVTVSR VL: SSELTQDPAVSVALGQTVRITCQGDSLRNYYASWYQQKPGQAPVLVIYGKNNRPSGIPDRFSGSSSGNTASLTITGAQAEDEADYYCNSRDSSGNHLYVFGTGTKVTVLG | binds | binds |
| 068-007 antibody (antibody, V domains shown) VH: EVQLVESGAEVKKPGASVKVSCKASGYTFTSYGISWVRQAPGQGLEWMGWISAYNGNTNYAQKLQGRVTMTTDTSTSTAYMELRSLRSDDTAVYYCAREKYSSGWYFDYWGQGTLVTVSR VL: SSELTQDPAVSVALGQTVRITCQGDSLRSYYASWYQQKPGQAPVLVIYGKNNRPSGIPDRFSGSSSGNTASLTITGAQAEDEADYYCNSRDSSGNHHYVFGTGTKVTVLG | binds | binds |
| 064-002 antibody (antibody, V domains shown) VH: QVQLQESGPGLVKPSETLSLTCTVSGGSISSYYWSWIRQPAGKGLEWIGRIYTSGSTNYNPSLKSRVTMSVDTSKNQFSLKLSSVTAADTAVYYCARERAYCSSTSCYRNAFDIWGQGTTVTVSR VL: QSVLTQPPSVSGAPGQRVNISCAGSSSNIGAGYDVHWYQQIPGTAPKLLMYGNSNRPSGVPDRFSGSKSGASASLAITRLQAEDEADYYCQSYDSSLSGSRVFGTGTKVTVLG | binds | binds |
| 015-003 antibody (antibody, V domains shown) VH: QVQLVQSGAEVKKPGASVKVSCKASGYTFTSYGISWVRQAPGQGLEWMGWISAYNGNTNYAQKLQGRVTMTTDTSTSTAYMELRSLRSDDTAVYYCATAASLKYYYDSSGYYYWGQGTLVTVSR VL: SSELTQDPAVSVALGQTVRITCQGDSLRSYYASWYQQKPGQAPVLVISGKNNRPSGIPDRFSGSSSGDTASLTITGAQAEDEANYYCNSRDSSGYPSWVFGGGTKLTVLG |  | binds |
